For this assay, the target named is T1, Huntingtin-associated protein 40 (HAP40), endogenous in mouse brain (mouse (endogenous in HD140Q KI mouse brain)) (UniProt Q00558).
T1 sequence: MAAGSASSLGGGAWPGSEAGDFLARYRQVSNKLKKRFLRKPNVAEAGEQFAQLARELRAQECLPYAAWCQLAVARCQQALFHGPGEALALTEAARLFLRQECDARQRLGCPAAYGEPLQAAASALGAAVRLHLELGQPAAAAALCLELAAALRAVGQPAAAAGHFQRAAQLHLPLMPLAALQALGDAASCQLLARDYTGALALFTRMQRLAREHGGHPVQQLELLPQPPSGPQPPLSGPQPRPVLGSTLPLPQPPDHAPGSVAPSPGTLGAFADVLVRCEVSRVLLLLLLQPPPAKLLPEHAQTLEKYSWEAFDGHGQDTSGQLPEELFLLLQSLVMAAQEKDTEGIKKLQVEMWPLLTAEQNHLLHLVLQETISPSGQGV
As to the kind of experiment: co-IP; brain lysate of heterozygous HD140Q KI mice in 1% NP-40 buffer (150 mM NaCl, 2 mM EDTA, 50 mM Tris pH 8.0); endogenous HAP40 precipitated with the HAP40 antibody and Protein G beads, 4 °C overnight; HTT detected by blot with mEM48, MAB2166 or D7F7.

Protein sequences, listed by entry. Tags and fused reporters are not part of them.
UniProt P42859: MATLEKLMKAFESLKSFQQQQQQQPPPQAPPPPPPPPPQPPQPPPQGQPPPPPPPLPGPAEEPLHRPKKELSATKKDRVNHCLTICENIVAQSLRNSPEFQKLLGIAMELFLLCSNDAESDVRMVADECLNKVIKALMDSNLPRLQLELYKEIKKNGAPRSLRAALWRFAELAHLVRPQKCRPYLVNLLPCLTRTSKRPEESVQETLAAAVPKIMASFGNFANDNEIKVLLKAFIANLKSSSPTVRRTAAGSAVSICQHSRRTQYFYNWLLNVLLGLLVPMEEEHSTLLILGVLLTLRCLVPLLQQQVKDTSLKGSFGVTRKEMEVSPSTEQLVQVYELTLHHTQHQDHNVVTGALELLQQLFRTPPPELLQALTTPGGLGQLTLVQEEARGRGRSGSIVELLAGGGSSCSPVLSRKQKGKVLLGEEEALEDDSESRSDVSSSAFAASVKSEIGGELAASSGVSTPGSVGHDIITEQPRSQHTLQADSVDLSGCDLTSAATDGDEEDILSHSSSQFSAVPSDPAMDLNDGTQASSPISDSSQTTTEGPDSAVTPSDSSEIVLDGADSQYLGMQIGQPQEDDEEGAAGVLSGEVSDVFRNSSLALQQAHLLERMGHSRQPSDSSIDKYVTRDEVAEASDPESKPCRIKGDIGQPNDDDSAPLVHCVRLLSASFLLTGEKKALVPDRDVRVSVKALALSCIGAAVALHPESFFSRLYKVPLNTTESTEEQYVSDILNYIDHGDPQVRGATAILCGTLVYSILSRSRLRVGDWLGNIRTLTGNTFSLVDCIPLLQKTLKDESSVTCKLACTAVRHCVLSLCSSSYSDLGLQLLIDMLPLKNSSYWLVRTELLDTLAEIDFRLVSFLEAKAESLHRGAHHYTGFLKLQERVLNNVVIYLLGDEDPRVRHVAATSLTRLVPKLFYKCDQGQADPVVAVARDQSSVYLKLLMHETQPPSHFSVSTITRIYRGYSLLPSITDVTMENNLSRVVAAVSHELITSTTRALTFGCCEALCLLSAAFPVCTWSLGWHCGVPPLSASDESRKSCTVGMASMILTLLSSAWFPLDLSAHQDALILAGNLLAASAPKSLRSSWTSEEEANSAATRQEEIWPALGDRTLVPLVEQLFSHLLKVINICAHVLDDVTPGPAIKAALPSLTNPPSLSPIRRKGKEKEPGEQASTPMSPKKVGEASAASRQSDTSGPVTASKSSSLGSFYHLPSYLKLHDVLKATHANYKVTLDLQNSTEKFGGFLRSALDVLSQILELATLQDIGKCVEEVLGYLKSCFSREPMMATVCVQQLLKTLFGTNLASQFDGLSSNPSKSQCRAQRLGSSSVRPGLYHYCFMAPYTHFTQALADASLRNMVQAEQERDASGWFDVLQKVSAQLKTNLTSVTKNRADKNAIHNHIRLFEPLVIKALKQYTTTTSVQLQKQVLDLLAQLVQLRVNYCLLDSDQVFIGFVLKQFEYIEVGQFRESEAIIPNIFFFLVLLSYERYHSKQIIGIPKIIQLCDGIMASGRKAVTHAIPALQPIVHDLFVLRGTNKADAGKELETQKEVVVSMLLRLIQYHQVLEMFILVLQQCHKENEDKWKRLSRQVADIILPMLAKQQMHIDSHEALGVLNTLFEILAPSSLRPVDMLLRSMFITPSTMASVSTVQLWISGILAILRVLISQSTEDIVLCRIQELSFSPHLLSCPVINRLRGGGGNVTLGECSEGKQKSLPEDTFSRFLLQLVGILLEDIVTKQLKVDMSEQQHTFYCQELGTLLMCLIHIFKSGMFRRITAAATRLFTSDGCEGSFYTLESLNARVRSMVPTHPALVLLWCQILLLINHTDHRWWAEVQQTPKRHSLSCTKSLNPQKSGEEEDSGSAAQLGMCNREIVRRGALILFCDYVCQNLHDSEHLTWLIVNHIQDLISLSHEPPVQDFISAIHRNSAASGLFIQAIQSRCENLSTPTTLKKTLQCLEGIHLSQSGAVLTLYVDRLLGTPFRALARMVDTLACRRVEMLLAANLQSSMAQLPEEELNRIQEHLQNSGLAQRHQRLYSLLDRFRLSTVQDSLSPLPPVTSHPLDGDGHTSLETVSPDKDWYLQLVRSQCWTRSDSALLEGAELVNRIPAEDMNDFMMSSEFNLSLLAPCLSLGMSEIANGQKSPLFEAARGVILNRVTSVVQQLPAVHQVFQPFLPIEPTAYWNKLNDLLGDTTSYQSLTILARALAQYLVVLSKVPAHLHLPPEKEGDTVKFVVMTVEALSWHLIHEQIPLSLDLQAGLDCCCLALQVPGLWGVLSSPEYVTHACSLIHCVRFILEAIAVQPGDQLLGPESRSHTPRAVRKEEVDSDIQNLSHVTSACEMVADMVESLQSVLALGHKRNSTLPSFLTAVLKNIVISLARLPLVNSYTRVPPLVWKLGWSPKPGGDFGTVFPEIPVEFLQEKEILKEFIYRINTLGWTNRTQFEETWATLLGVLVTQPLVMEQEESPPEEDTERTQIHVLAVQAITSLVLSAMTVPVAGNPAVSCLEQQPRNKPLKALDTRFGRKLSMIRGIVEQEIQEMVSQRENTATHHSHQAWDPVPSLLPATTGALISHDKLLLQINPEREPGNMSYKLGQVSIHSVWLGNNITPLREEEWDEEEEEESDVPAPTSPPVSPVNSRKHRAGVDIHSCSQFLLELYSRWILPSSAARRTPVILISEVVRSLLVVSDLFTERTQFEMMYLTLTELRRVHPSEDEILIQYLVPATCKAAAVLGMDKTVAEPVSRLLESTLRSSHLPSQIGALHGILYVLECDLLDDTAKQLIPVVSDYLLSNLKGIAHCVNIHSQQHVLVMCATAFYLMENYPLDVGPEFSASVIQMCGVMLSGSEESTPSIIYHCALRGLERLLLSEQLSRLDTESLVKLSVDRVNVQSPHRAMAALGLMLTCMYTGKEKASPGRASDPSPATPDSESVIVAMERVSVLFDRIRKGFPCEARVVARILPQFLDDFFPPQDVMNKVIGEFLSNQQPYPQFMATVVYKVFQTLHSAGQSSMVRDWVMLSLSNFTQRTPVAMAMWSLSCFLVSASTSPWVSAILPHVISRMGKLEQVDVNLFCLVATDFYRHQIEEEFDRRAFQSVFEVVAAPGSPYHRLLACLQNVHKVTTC

No constants are given. Whether binding was seen depends on the method and setting. In cells and extracts the contact can be indirect. Some results given as binding are weak or reduced against the parent protein; the word gives no strength.

As to “full-length wild-type HTT (WT HTT), endogenous in mouse brain (from UniProt P42859 1-3119)”, the binding entry is given as “binds”.

(Values after paper PMC11094052.)
